PubChem BioAssay AID1347075 (National Center for Advancing Translational Sciences (NCATS), 2019)
Several values for one entry are separate records, joined by “and”; a condition that tells them apart may be missing. Identical values can stand only once. About 5,500 (1.4%) of roughly 400,000 compounds were called active. Inconclusive results, whose numbers are uncertain, are shown with a selection of clear calls. Calls come from the whole dose curve; as a rule, active = well fitted cell-killing curve with a large enough effect; inconclusive = small, poorly fitted or top-dose-only effect, or effect the other way; inactive = flat fitted curve, though single readings scatter. A potency beside an inconclusive call is a rough fit, not a confirmed value.

Experiment: qHTS assay for MDR1-selective chemotherapeutics: Primary screen using the parental adenocarcinoma cell KB-3-1; note: nearly all actives have a fitted effect of over 60% in size
Conditions: KB-3-1 viability, CellTiter-Glo ATP luminescence, 72 h; activity change, negative = cytotoxic: at 46.1 µM (top of the series)
Outline: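 KB-3-1 cells, DMEM (no phenol red) + 10% FBS; compound by pin transfer, 72 h, 37 °C. Readout: CellTiter-Glo luminescence after 10 min. Data normalized, curve-fitted.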
% is set by controls: 0 for no effect and ±100 for the full control effect; potency is the fitted concentration of half-maximal effect.

Row | Compound | Potency | activity change, negative = cytotoxic
1 | CCN1CCc2c(sc(NC(=O)c3ccc(S(=O)(=O)N4CCCC4)cc3)c2C(=O)NC)C1 | inconclusive: 32.6 µM [cytotoxic, single point] | 
2 | CCCN(Cc1cc2cc(C)ccc2[nH]c1=O)S(C)(=O)=O | inactive | 
3 | CCN(CC)CCNC(=O)c1ccc(NC(=O)c2ccc(S(=O)(=O)N3CCCCCC3)cc2)cc1 | inconclusive: 11.6 µM [cytotoxic, partial curve] | 
4 | O=C(Cn1cc(S(=O)(=O)c2ccc(Cl)cc2)c(=O)c2ccccc21)Nc1ccc2c(c1)OCO2 | inactive | 
5 | CCOc1ccc(/C=C/C(=O)c2cc(Br)ccc(=O)c2O)cc1 | inconclusive: 29.1 µM [cytotoxic, single point] | 
6 | Cc1ccc(NC(=O)c2cc3c(s2)CCC3)cc1S(=O)(=O)N1CCOCC1 | inconclusive: 35.5 µM [cytotoxic, single point] | 
7 | OC(CNc1ccnc2cc(Cl)ccc12)CNC1CCCCC1 (stereo unspecified) | inconclusive: 29.1 µM [cytotoxic, single point] | 
8 | N#Cc1c(N)nc2c(c1N)CC(COc1ccccc1)O2 (stereo unspecified) | inactive | 
9 | COc1ccc(C)cc1NS(=O)(=O)c1ccc(-c2cnc(C3CC3)o2)cc1 | active: 517 nM and active: 206 nM | 
10 | O=C(Nc1ccccc1)c1cccc(S(=O)(=O)N2CCCCC2)c1 | inactive | 
11 | COc1ccc(NC(=O)CC(Cc2ccc(Cl)cc2)C(=O)O)cc1 (stereo unspecified) |  | inconclusive: 0.779%
12 | CC(C)(C)c1ccc(NC(=O)COC(=O)c2ccc(NS(=O)(=O)c3ccc(F)c(F)c3)cc2)cc1 | inactive | 
13 | CNC(=S)N/N=C(\C)c1ccc(C)c(C)c1 | inconclusive: 29.1 µM [cytotoxic, single point] | 
14 | CCc1cc(=O)oc2cc3occ(-c4ccc(OC)c(F)c4)c3cc12 | active: 18.4 µM | 
15 | COc1ccc(-c2cc(C3CCN(c4ccc(C(C)=O)cc4[N+](=O)[O-])CC3)[nH]n2)cc1 | inconclusive: 16.4 µM [cytotoxic, partial curve, poor fit] | 
16 | O=C(c1cc(-c2ccccc2Cl)nc2ccccc12)N1CCN(c2ccccc2O)CC1 | inactive | 
17 | COc1ccc(CCN2C(=O)N(c3ccc(F)cc3)C(=O)C2CC(=O)Nc2ccccc2)cc1OC (stereo unspecified) | inactive | 
18 | C=CCn1c(COc2ccc(Cl)cc2)nnc1SCC(=O)c1c(N)n(C)c(=O)n(C)c1=O | inactive | 
19 | COc1cccc2sc(NNC(=O)C3COc4ccccc4O3)nc12 (stereo unspecified) | inconclusive: 29.1 µM [cytotoxic, single point] | 
20 | Cc1nnc(Sc2cc(NCCO)c([N+](=O)[O-])c3nonc23)s1 | inactive | 
21 | CCCCSc1nnc2n(CCc3ccccc3)c(=O)c3c4c(sc3n12)COC(C)(C)C4 | inactive | 
22 | N#C/C=C/N1CCN(Cc2ccc3c(c2)OCO3)CC1 | inactive | 
23 | O=c1cc(C(F)(F)F)[nH]c2ccc(OC(F)(F)F)cc12 | inconclusive: 29.1 µM [cytotoxic, single point] | 
24 | Cn1c(=O)c2c(nc(NCCCO)n2C/C=C/c2ccccc2)n(C)c1=O | inactive | 

Row | Compound | Potency | activity change, negative = cytotoxic
25 | C[C@@H]1C[C@@H]2OC(=O)[C@]3(C)[C@H]2[C@@H](OC3(C)O)[C@]2(C)C(=O)C=C[C@H]12 (stereo partly specified) | inconclusive: 16.4 µM [cytotoxic, partial curve] | 
26 | O=C(NCCCc1nc2ccccc2n1CCCCOc1ccccc1)C1CCCCC1 | inconclusive: 6.51 µM [cytotoxic, partial curve] | 
27 | O=C(/C=C/[C@H]1O[C@@H](n2ccc(=O)[nH]c2=O)[C@H](O)[C@@H]1O)NCC1CCCO1 (stereo partly specified) | inactive | 
28 | COc1ccc(CCNC(=O)c2cnc3sc(N4CCOCC4)nn3c2=O)cc1OC | inactive | 
29 | S=C(Nc1ccccc1)Nc1ccc(Cl)cc1Cl | inactive | 
30 | CCOc1cc(N2CCOCC2)c(OCC)cc1NS(=O)(=O)c1ccc(Cl)s1 | active: 6.51 µM | 
31 | O=C1CCC(=O)O1 |  | inconclusive: 0%
32 | O=c1c(Sc2ccccc2)c(C(F)(F)F)[nH]n1-c1ccccc1 | inconclusive: 20 µM [cytotoxic, single point] | 
33 | O=C(Nc1cc(-c2nc3cc(Cl)ccc3o2)ccc1Cl)c1cccc2ccccc12 | inactive | 
34 | CC(C)(C)c1ccc(OCc2ccc(C(=O)Nc3cccnc3)o2)cc1 | inconclusive: 29.1 µM [cytotoxic, single point] | 
35 | Cc1nc(S(=O)(=O)N(C)c2ccccc2)c(C#N)c(C)c1Cl | inconclusive: 29.1 µM [cytotoxic, single point] | 
36 | CN(C)C(=O)CSc1nc(-c2ccccc2)nc2c1CCCC2 | inconclusive: 23.1 µM [cytotoxic, single point] | 
37 | Cc1nc2sccn2c1-c1csc(NCc2ccccc2)n1 | inconclusive: 18.4 µM [cytotoxic, single point] | 
38 | CC(c1ccco1)N(C(=O)C12CC3(C)CC(C)(CC(C)(C3)C1)C2)c1ccccn1 (stereo unspecified) | inconclusive: 29.1 µM [cytotoxic, single point] | 
39 | Cc1ccc(-c2[nH]nc(N)c2N=Nc2cccc(Cl)c2C)cc1 | inconclusive: 18.4 µM [cytotoxic, single point] | 
40 | Cc1cc(C)cc(-n2ncc3c2CCCC3NC(=O)CN2CCCC2=O)c1 (stereo unspecified) | inconclusive: 2.06 µM [cytotoxic, partial curve, poor fit] | 
41 | Cc1ccc(S(=O)(=O)c2nnn3c2nc(N2CCCCC2)c2ccccc23)cc1 | inactive | 
42 | CC(C)(C)C1CCc2c(sc(NC(=O)CSc3ncn[nH]3)c2C#N)C1 (stereo unspecified) | inconclusive: 29.1 µM [cytotoxic, single point] | 
43 | CC(Sc1nc2ccccc2c(=O)n1C)C(=O)N(C)C1CCCCC1 (stereo unspecified) | inconclusive: 20.6 µM [cytotoxic, single point] | 
44 | Cc1cccc(NC(=O)CSCC(=O)Nc2ccccc2N2CCCCC2)c1 | inconclusive: 29.1 µM [cytotoxic, single point] | 
45 | Cc1cc(C)cc(-n2c(C)cc(/C=C3\C(=N)N4N=C(CC(C)C)SC4=NC3=O)c2C)c1 | inconclusive: 29.1 µM [cytotoxic, single point] | 
46 | COc1ccc(Cl)cc1NC(=O)CN(C)CC(=O)N1CC(=O)Nc2ccccc21 | inactive | 
47 | CCNC(=S)NC1CC2CCCC(C1)N2Cc1ccc(C)cc1 (stereo unspecified) | inactive | 
48 | Cc1ccc(O)c(-c2cc(-c3ccccc3C)[nH]n2)c1 | inconclusive: 20.6 µM [cytotoxic, partial curve] | 

Row | Compound | Potency | activity change, negative = cytotoxic
49 | N=c1n(Cc2ccccc2)c2ccccc2n1CC(O)c1ccco1 (stereo unspecified) | inconclusive: 18.4 µM [cytotoxic, single point] | 
50 | Cc1ccccc1NC(=S)NCC1CCC(CNC(=S)Nc2ccccc2C)CC1 (stereo unspecified) | inconclusive: 11.6 µM [rising, single point] | 
51 | Cc1onc(-c2ccccc2)c1C(=O)NC(=S)NNC(=O)c1cc(-c2ccc(F)cc2)n[nH]1 | inconclusive: 18.4 µM [cytotoxic, single point] | 
52 | COc1ccc2c(c1)CC=C1C2CCC2(C)C(=O)C(=NO)CC12 (stereo unspecified) | inconclusive: 20.6 µM [cytotoxic, single point] | 
53 | Cc1ccc(C(=O)N2CCN(c3ncc(C(F)(F)F)cc3Cl)CC2)s1 | inactive | 
54 | COc1ccc(-c2c/c(=N\c3nc(-c4ccccc4)c(C)s3)c3ccccc3o2)cc1O | active: 5.17 µM | 
55 | COc1ccc(-c2cc(C3CCN(c4ncccc4[N+](=O)[O-])CC3)[nH]n2)cc1 | inconclusive: 29.1 µM [cytotoxic, single point] | 
56 | CCC/C=N/NC(=O)c1cc(Br)ccc1O | inactive | 
57 | COc1ccc(-c2cc(C(F)(F)F)nc(SCCC(=O)Nc3ccc(O)cc3)n2)cc1 | inactive | 
58 | O=C(NCCc1ccccc1)C1CCC(CNc2nc(=S)[nH]c3ccccc23)CC1 (stereo unspecified) | inconclusive: 20.6 µM [cytotoxic, single point] | 
59 | Cc1cc(NC(=O)/C(C#N)=C\c2ccc(-c3ccc(SC(F)F)cc3)o2)n(-c2ccccc2)n1 | inactive | 
60 | Cc1cc(C)cc(N(CC(=O)NCc2ccco2)C(=O)CCC(=O)Nc2nccs2)c1 | inconclusive: 23.1 µM [rising, single point] | 
61 | COc1ccc(CCNC(=O)C2CCN(Cc3nc(-c4ccccc4C)oc3C)CC2)cc1OC | inconclusive: 16.4 µM [cytotoxic, partial curve, poor fit] | 
62 | CN(C)C(=O)COC(=O)c1cccc(CN2C(=O)c3ccccc3C2=O)c1 |  | inconclusive: 10.1%
63 | CN(C)c1ccc(/C=C/c2ccnc3c(N)cccc23)cc1 | inconclusive: 3.66 µM [cytotoxic, partial curve, poor fit] | 
64 | COc1cccc(NC(=O)CN(C)C(=O)CN2C(=O)NC(C)(c3ccc(C)cc3)C2=O)c1 (stereo unspecified) | inconclusive: 14.6 µM [cytotoxic, single point] | 
65 | CCn1c(C)c(CS(=O)(=O)c2ccccc2)[nH]c1=O | inactive | 
66 | COc1cccc(NC(=O)Cn2c(=O)ccc3cc(S(=O)(=O)N4CCC(C)CC4)ccc32)c1 | inactive | 
67 | COc1ccc(-c2noc(N3CCC(C(=O)NCCCN4CCCC(C)C4)CC3)n2)cc1 (stereo unspecified) | inconclusive: 1.3 µM [rising, full curve, poor fit] | 
68 | c1ccc(-c2noc(-c3ccco3)n2)nc1 | inconclusive: 16.4 µM [cytotoxic, partial curve, poor fit] | 
69 | CCOc1cc(C2c3c(oc4cc(C)c(Cl)cc4c3=O)C(=O)N2Cc2ccco2)ccc1O (stereo unspecified) | inconclusive: 29.1 µM [cytotoxic, single point] | 
70 | Cc1ccc(Nc2c([N+](=O)[O-])ccc3nonc23)c(C)c1 | inactive | 
71 | O=C(Nc1ccc(Cl)c(Cl)c1)c1ccc(Cn2cc(Cl)cn2)cc1 | inconclusive: 25.9 µM [cytotoxic, partial curve, poor fit] | 
